# Results taken from patent US20250381169A1, “METHODS FOR TREATING RENAL DISEASE” (Arizona Board of Regents on Behalf of the University of …, priority 2022, published 2025).
# Tests used:
# [1] = system: Db/db mice; assay: db/db mouse model of diabetic kidney disease; assay type: in vivo; details: FIG. 14; n=6
# Procedure: Db/db and nondiabetic (db/m) mice (10 wk old) were treated with MC16 or vehicle for 3 wk and euthanized.
# [2] = system: aged mouse kidneys (renal cortex); assay: Global metabolomics of renal cortex in aged mice; assay type: in vivo
# Procedure: Aged 22-month-old male C57B/6J mice were administered 1.0 mg/kg of MC16 or normal saline every other day over a 21-day interval (n=8-9/group). Seven-month-old C57B/6J male mice (controls) were administered normal saline every other day over a 21-day interval (n=7). Kidneys were harvested and snap frozen in liquid nitrogen. Renal cortex biopsies were analyzed by Metabolon for global metabolomic analyses. Briefly, samples were processed and divided into four fractions: two for analysis by RP/UPLC-MS/MS with (+) ion mode electrospray ionization (IMESI), one for RP/UPLC-MS/MS with (−) IMESI, and one for HILIC/UPLC-MS/MS with (−) IMESI. […] A p-value of p≤0.05 and a false discovery rate of q<0.10 were utilized to identify global metabolite alteration and correct for multiple comparisons, respectively.
# [3] = MC16-treated 'old' mice vs saline-treated 'old' mice
# [4] = MC16-treated 'old' mice vs saline-treated 'young' control mice
structure (smiles),measurement,setting,value
"CCN1C(=O)C(Cc2cccc(OC)c2O)(OC(=O)N(C)C)c2cc(Cl)ccc21 (stereo not shown) [MC16, 5-chloro-1-ethyl-3-(2-hydroxy-3-methoxybenzyl)-2-oxoindolin-3-yl dimethylcarbamate]",weight,[1],weight loss
same,BCs decreased,[2]; [3],68 BCs
same,BCs increased,[2]; [3],72 BCs
same,biochemicals (BCs) statistically different,[2]; [3],140 BCs
same,BCs decreased,[2]; [4],129 BCs
same,BCs increased,[2]; [4],214 BCs
same,biochemicals (BCs) statistically different,"[2]; MC16-treated 'old' mice vs saline-treated 'young' control mice, 1.0 mg/kg every other day, 21 days, 1,010 BCs detected",343 BCs
